Experimental data as given in article PMC10973363, “Insights into the modulation of bacterial NADase activity by phage proteins” (Nature Communications, 2024).
Results are given in words; binding and its absence hold for the method and conditions named. Where a sequence is shown, tags or fusion partners need not be part of it.

T1: tail tube protein (TTP) from phage SPR, His-tagged (phage SPR)
T1 sequence: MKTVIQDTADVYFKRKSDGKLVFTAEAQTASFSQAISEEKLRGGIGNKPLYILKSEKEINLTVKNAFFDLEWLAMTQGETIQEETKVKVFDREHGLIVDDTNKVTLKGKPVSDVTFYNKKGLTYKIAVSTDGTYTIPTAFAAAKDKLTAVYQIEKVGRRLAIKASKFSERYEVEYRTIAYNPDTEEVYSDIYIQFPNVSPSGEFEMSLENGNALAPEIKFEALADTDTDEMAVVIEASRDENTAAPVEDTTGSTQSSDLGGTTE

B1: DSR anti-defense 1 (DSAD1), His-tagged (natural protein)
chain: MIEIFKDTGATHDLVYHSKINTFVWDVEFDIVLSDSKELNKCYFVKCFNPYRINGKCDFAVSSIDIFSEGKRLLIENEFNFKITKAVHVATSKDVTEIVLHLSERISSPFPIVKEVVYLD
notes: phage-encoded DSAD1, WP_004399562; aa 1-9 not built in the cryo-EM model; Cloned into a pET-derived vector with an N-terminal His tag; also called anti-DSR2 protein; His-tagged DSAD1; source: E. coli Rosetta (DE3), purified (Ni-NTA, anion exchange, gel filtration); not shown: His, N-terminal, kept
B2: DSR2 SIR2 domain-only protein (aa 1-303) (domain or fragment, UniProt P0DXN8 1-303)
chain: MVKVDLESKRYGEKLKEVFLMLDNNVVECIKEITESSRNGKLVFFVGAGVSTLSDYPQWWRLVDKYHEELYGSPKKGNYSSDEYLRIPQIFYNVKGEMAFDGILKDFFQVDKPTNPIHDKILAMNPAHVITTNYDNLIDTACWKRGKYFSVISAEEDVANATSSRYLLKVHGDFRKGFKGENVVLKEDDYLNYDQNYPLISNLMKTIIATHTIVFIGYGLGDYNINMLLNWVRKLQKDSFHKPFFIRTDPSPIENETLIYYENKGLRIIDAASLIDSNEYDYLERYSAVMDLLIESQENKFIT

Columns and labels:
[1] = biological target: B1; test: AUC; sedimentation velocity, samples at 1 mg/mL in gel-filtration buffer (25 mM Tris-HCl pH 7.5, 150 mM NaCl, 2 mM DTT), SEDFIT and SEDPHAT; both purified
[2] = biological target: T1, tail tube protein (TTP) from phage SPR, His-tagged (phage SPR); test: pull-down; N-terminal His-tagged TTP or DSAD1 on Ni-NTA agarose beads, excess untagged DSR2 variants added, 1 h at 4 °C, 25 mM Tris-HCl pH 7.5, 300 mM NaCl, washes with 10 mM imidazole, SDS-PAGE with Coomassie staining; both purified

Binder | binding [1] | binding [2]
B1 | no binding (tested: 1 mg/mL) | 
B2 |  | no binding
